Measured values reported in PubChem BioAssay (NCATS).
“And” between values parts separate entries of the source, which are not always exact repeats. Equal entries are not always repeated. This is one part of the list. Shown are side measurements of this screen, not its main read-out; they come without a call. Compounds called inactive in the main read-out are mostly missing here.

experiment: qHTS assay for small molecule antagonists of retinoid X receptor alpha signaling (AID 588546); conditions: HEK293T RXRa-UAS-bla, beta-lactamase ratio, antagonist mode; measured here: W530 green channel, cytotoxicity proxy;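 further: cells stimulated with 9-cis-retinoic acid as agonist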
How it was run: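 Beta-lactamase reporter inhibition, read as CCF4 fluorescence ratio (ex 405, em 460/530 nm) after 2 h at RT. HEK293T UAS-bla cells, 2500/well, were stimulated with 9-cis-RA at 500 or 100 nM final alongside test compound for 18 h at 37 C.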
On the % scale 0 is the no-effect control and ±100 the full control effect.

| Compound | max response |
| --- | --- |
| CC(C)(OOC(C)(C)c1ccccc1)c1ccccc1 | -30.6% |
| C=CC=O | 8.98% |
| O=C(O)C(F)(F)C(F)(F)C(F)(F)C(F)(F)C(F)(F)C(F)(F)C(F)(F)C(F)(F)C(F)(F)F | -14.4% |
| Oc1ccc(Cl)cc1Cc1ccccc1 | -13% |
| O=C(O)C(Br)CBr (stereo unspecified) | -13.3% |
| O=C(O)c1cccc(Cl)c1 | -3.58% |
| COP(=O)(OC)OC(Br)C(Cl)(Cl)Br (stereo unspecified) | -10.7% |
| CCOP(=O)(OCC)Oc1ccc([N+](=O)[O-])cc1 | -16.6% |
| S=C([S-])NCCNC(=S)[S-].[Zn+2] | -12.7% |
| S=C([S-])NCCNC(=S)[S-].[Mn+2] | 17.2% and -7.55% |
| CCCCCCCCCc1ccc(O)cc1 | -35% |

Fetched one by one from the entries so far, two records:

| Compound | max response |
| --- | --- |
| COP(=O)(OC)OC(Br)C(Cl)(Cl)Br (stereo unspecified) | -10.7% |
| CCCCCCCCCc1ccc(O)cc1 | -35% |
